Measurements as given in patent US20100160234A1.
No constants are given. Whether binding was seen depends on the method and setting. Some binding calls cover weakened binding; strength is not graded here. For part of these data: Sequences can lack the tags named with a protein.

The chains behind the UniProt entries cited, without tags or fusion partners.
UniProt P06730: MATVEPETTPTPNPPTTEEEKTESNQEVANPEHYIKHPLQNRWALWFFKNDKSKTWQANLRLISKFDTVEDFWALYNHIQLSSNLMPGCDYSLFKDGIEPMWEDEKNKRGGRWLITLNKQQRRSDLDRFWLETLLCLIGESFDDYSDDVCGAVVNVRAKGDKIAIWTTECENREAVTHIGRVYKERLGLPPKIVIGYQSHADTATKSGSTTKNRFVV

Experiments:
[1] = target: Human eIF4E (immobilised in ELISA wells) (human) (UniProt P06730); test: ELISA, human eIF4E coated on the plate, GST-fusion peptide detected with anti-GST HRP antibody
[2] = target: Human eIF4E (immobilised in ELISA wells) (human) (UniProt P06730); test: ELISA, human eIF4E coated on the plate, GST-fusion protein detected with anti-GST HRP antibody

Molecule | binding [1] | binding [2]
GST-fusion of VPg2 (SEQ ID NO: 14) (from UniProt P18247 1884-1937) | binds | –
GST-fusion of VPg4 (SEQ ID NO: 16) (from UniProt P18247 1884-1925) | binds | –
GST-fusion of PVY VPg protein (SEQ ID NO: 2) (protein, not shown: a dimerising Fc or GST) GKNKSKRIQALKFRHARDKRAGFEIDNNDDTIEEFFGSAYRKKGKGKGTTVGMGKSSRRFINMYGFDPTEYSFIQFVDPLTGAQIEENVYADIRDIQERFSEVRKKMVENDDIEMQALGSNTTIHAYFRKDWSDKALKIDLMPHNPLKVCDKTNGIAKFPERELELRQTGPAVEVDVKDIPAQEVEHE | – | binds
